Laboratory results as given in patent EP3502102A1, “STING INHIBITORS” (ECOLE POLYTECHNIQUE FEDERALE DE LAUSANNE (EPFL), priority 2017, dated 2019).
At least one structure is not confirmed: it was looked up by name or label, or the drawing left a doubt.

Columns and labels:
Format in all cases: cell-based
Parameters in all cases: endogenous in cells; host or cells: BMDMs from wild type mice
STING [1] = target: T1, STING (Mus musculus, UniProt Q3TBT3); test: Ifnb1 mRNA (RT-qPCR) in MEFs stimulated with cGAMP; settings: 0.25 µM, 1 h
T1 sequence (Q3TBT3 1-378): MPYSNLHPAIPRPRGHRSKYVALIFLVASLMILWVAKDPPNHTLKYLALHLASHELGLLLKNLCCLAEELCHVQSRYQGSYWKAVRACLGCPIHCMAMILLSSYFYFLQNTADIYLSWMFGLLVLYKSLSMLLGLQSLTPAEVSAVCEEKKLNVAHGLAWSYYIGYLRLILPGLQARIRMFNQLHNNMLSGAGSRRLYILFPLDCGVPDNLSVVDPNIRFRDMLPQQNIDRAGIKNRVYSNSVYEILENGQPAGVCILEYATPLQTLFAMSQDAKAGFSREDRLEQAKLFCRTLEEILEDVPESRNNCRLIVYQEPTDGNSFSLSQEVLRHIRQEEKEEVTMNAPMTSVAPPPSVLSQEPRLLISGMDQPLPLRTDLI

STING [2] = target: T1, STING; test: Washout experiment in BMDMs, Ifnb1 mRNA after cGAMP; settings: BMDMs 0.25 µM 1 h, washed prior to stimulation with cGAMP
STING [3] = target: T1, STING; test: Ifnb1 mRNA (RT-qPCR) in BMDMs stimulated with STING activators; settings: for type I IFN responses: 0.25 µM
STING [4] = target: T1, STING; test: Immunoblot of CMA-triggered STING degradation in MEFs; settings: 1 µM

O=C(Nc1ccc2c(c1)oc1ccccc12)c1ccc([N+](=O)[O-])o1 [C-178, N-dibenzo[b,d]furan-3-yl-5-nitro-2-furamide]
STING-triggered induction of type I IFNs (STING [1]): potently inhibited | inhibitory effect after washing (STING [2]): did not reduce the inhibitory effect | type I IFN responses (STING [3]; triggered by 90bp dsDNA): reduced | type I IFN responses (STING [3]; triggered by CMA): reduced | type I IFN responses (STING [3]; triggered by cyclic di-GMP): reduced | cGAMP-induced expression of IFN-• mRNA (STING [3]; C-178 0.25 µM, cGAMP 3 h): inhibited | CMA-triggered degradation of STING (STING [4]): did not impair
